Earlier results in patent US20130012440A1, “PREVENTIVE AND/OR THERAPEUTIC AND/OR AGGRAVATION SUPPRESSING AGENT FOR HUMAN ARTHRITIS DEFORMANS” (ASAHI KASEI PHARMA CORPORATION, priority 2009, published 2013).
At least one structure is not confirmed: it was looked up by name or label, or the drawing left a doubt.

Tests used:
[1] = system: knee osteoarthritis patients; settings: knee osteoarthritis patients having mild knee problems corresponding to initial onset; cited from earlier work
[2] = system: dog model of anterior cruciate ligament transection; settings: cited from earlier work

## C[C@H]1c2cccc(O)c2C(=O)C2=C(O)[C@]3(O)C(=O)C(C(N)=O)=C(O)[C@@H](N(C)C)[C@@H]3[C@@H](O)[C@@H]21 [Doxycycline]
[1]
  Effect of reducing loss of JSW: failed to demonstrate
  Effect of reducing pain: failed to demonstrate
[2]
  Effect of preventing disease progression: found to have an effect of preventing disease progression
